Measurements taken from patent US7060444B1, “Zone 3 necrosis associated markers and method of use thereof” (CuraGen Corporation, priority 2002, dated 2006).

Tested on: Rat primary hepatocytes

SMILES: CC(C)c1c(C(=O)Nc2ccccc2)c(-c2ccccc2)c(-c2ccc(F)cc2)n1CC[C@@H](O)C[C@@H](O)CC(=O)O [Atorvastatin]
- Zone 3 Necrosis Pathology: Absent
